The values below come from patent US5378803A (Sterling Winthrop Inc., priority 1992, dated 1995).

Some peptides are written in HELM: one residue between dots, names in brackets for other building blocks, links after the first $.

This data set in a line: general procedure: solution-phase peptide synthesis; dicyclohexylcarbodiimide/N-hydroxysuccinimide; mixed anhydride (isobutyl chlorof).
[1] abbreviates: late stage modification step, acetate, phosphate or methanesulfonate salts.
The mark [2] stands for this setting: coupling step, acetate, phosphate or methanesulfonate salts.
The mark [3] stands for this setting: late stage modification step, monoacetate salt sesquihydrate.
[4] abbreviates: coupling step, assuming monoacetate salt, acetate, phosphate or methanesulfonate salts.

For the substance “PEPTIDE1{P.[D-Trp(S)Phe].[D-Trp(S)Leu].[NHCH2CH(Bzl)NH2]}$$$$V2.0”, the step yield under setting [1] turned out to be 66% yield.
As for “PEPTIDE1{P.[dW].[L-Phe(NH)Trp].L.F.[am]}$$$$V2.0”, the step yield (late stage modification step, phosphate (1:1) salt) came to 63% yield.
Turning to Boc-Example 4, the step yield under setting [2] was determined as 73% yield.
On to Boc-Pro-trp-Phe-trp-NHNH2, for which the step yield under setting [1] worked out at 80% yield.
“PEPTIDE1{P.[D-Trp(NH)Phe].[dW].L.F.[am]}$$$$V2.0”: the step yield under setting [1] was determined as 66% yield.
For Boc-Example 10, the step yield under setting [2] was found to be 42% yield.
Turning to “PEPTIDE1{P.[D-Trp(S)Phe].[dW].L.F}$$$$V2.0”, under setting [1], the step yield turned out to be 77% yield.
“PEPTIDE1{P.[D-Trp(S)Phe].[dW].L.F.[am]}$$$$V2.0”: the step yield under setting [3] was determined as 84% yield. Also, the isolated yield (whole synthesis, overall over last three steps, diacetate salt monohydrate) turned out to be 50% overall yield.
In the case of Boc-Example 2, the step yield under setting [2] is reported as 80% yield.
On to “PEPTIDE1{P.[D-Trp(S)Phe].[dW].L.[x-MePhe].[am]}$$$$V2.0”, for which the step yield under setting [1] was found to be 6% yield.
As to Boc-Example 5, under setting [2], the step yield is 78% yield.
Boc-Example 11: under setting [4], the step yield is given as 65% yield.
Take Boc-Example 12: the step yield under setting [4] worked out at 80% yield.
Regarding Boc-Example 3, the step yield under setting [2] worked out at 70% yield.
The same measure, in the same setting: the same measure for Boc-Example 9: 79% yield; for Boc-Example 6: 86% yield.
As to “PEPTIDE1{P.[L-Trp(S)Phe].[dW].L.F.[am]}$$$$V2.0”, the step yield under setting [3] is 83% yield.
In the case of “PEPTIDE1{P.[dW].[L-Phe(S)Trp].L.F.[am]}$$$$V2.0”, the step yield (late stage modification step, phosphate (2:1) salt monoacetate dihydrate) was found to be 43% yield.
